In this test the test system is P388 leukemia ip, CD2F1 mice, survival T/C. In words: NCI In Vivo Anticancer Drug Screen. Data for tumor model P388 Leukemia (intraperitoneal) in CD2F1 (CDF1) mice. To be noted: T/C endpoint: median survival time, higher T/C = longer survival.
The mark [1] stands for this setting: dose: 100.0 mg/kg/injection, schedule: Q01DX009 (ip), vehicle: saline.
The mark [2] stands for this setting: dose: 200.0 mg/kg/injection, schedule: Q01DX009 (ip), vehicle: saline.

The list shows only some results of the screen, not a fair sample: it gathers tests that were run many times, whatever their T/C, doses with no T/C, and many T/C values between a quarter and a half above the control. Other doses and runs of a compound stand elsewhere. T/C: endpoint of the treated group in % of that of the vehicle group. Some doses have a count of surviving animals in place of a T/C: the source files T/C as zero there, which appears to mark a toxic dose or a test without result, not a measured value. Some survivor counts are full or nearly so, which does not show that the dose was tolerated: survival well below the control is almost never listed, so the zero probably covers shortened survival too. Counts of survivors are from the toxicity check (mostly the fifth day) where no day follows; animals may have died later. Schedules are NCI's codes, read here as Q, the interval in days (D) or hours (H), X, the number of doses. Some entries were tested several times; the values are given in rising order. For survival time, the PubChem record calls one and a half times the control and up active, and a quarter to a half above the control has no call in these data; cut-offs in other NCI protocols can differ.

In the case of `COc1cc2c(c(OC)c1OC)-c1ccc(SC)c(=O)cc1[C@@H](NC(=O)CO)CC2`, the T/C is 134 and 137 % of control (dose: 0.03 mg/kg/injection, schedule: Q01DX009 (ip), vehicle: other); 139 and 143 % of control (dose: 0.05 mg/kg/injection, schedule: Q01DX009 (ip), vehicle: other); 139 % of control (dose: 0.1 mg/kg/injection, schedule: Q01DX009 (ip), vehicle: other). Moreover, the survivor count is, setting by setting: (dose: 0.78 mg/kg/injection, schedule: Q01DX009 (ip), vehicle: other) 0 of 6; (dose: 0.8 mg/kg/injection, schedule: Q01DX009 (ip), vehicle: other) 5 of 6 and 6 of 6; (dose: 1.56 mg/kg/injection, schedule: Q01DX009 (ip), vehicle: other) 0 of 6; (dose: 3.13 mg/kg/injection, schedule: Q01DX009 (ip), vehicle: other) 0 of 6; (dose: 6.25 mg/kg/injection, schedule: Q01DX009 (ip), vehicle: other) 0 of 6; (dose: 12.5 mg/kg/injection, schedule: Q01DX009 (ip), vehicle: other) 0 of 6. In addition, the survivor count is, setting by setting: (dose: 25.0 mg/kg/injection, schedule: Q01DX009 (ip), vehicle: other) 0 of 6; (dose: 50.0 mg/kg/injection, schedule: Q01DX009 (ip), vehicle: other) 0 of 6; (dose: 100.0 mg/kg/injection, schedule: Q01DX009 (ip), vehicle: other) 0 of 6; (dose: 200.0 mg/kg/injection, schedule: Q01DX009 (ip), vehicle: other) 0 of 6.
For the compound `CN(C)c1ccc(C(=N)Cc2ccc3ccccc3n2)cc1`, where the note is “dose: 300.0 mg/kg/injection, schedule: Q01DX009 (ip), vehicle: Klucel (hydroxypropylcellulose) (HPC)”, the survivor count was 3 of 6.
Regarding `O=c1oc2ccccc2cc1Cc1cc2ccccc2oc1=O`, the survivor count (dose: 200.0 mg/kg/injection, schedule: Q01DX009 (ip), vehicle: Klucel (hydroxypropylcellulose) (HPC)) was 0 of 6.
Turning to `CCCCCCCCCCCCCCCC(=O)OC12CC(C)C3(O)C(C=C(CO)CC4(O)C(=O)C(C)=CC43)C1C2(C)CO` (configuration not stated), where the note is “dose: 0.12 mg/kg/injection, schedule: Q01DX009 (ip), vehicle: saline with Tween-80”, the survivor count is 5 of 6.
As for `N#C/C(=C\c1ccccn1)c1ccc(Cl)cc1`, the survivor count (dose: 150.0 mg/kg/injection, schedule: Q01DX009 (none), vehicle: saline) was 6 of 6.
As to `C=CC(=NC(C)C)Nc1ccccc1`, the survivor count (dose: 12.5 mg/kg/injection, schedule: Q01DX009 (ip), vehicle: saline) is 1 of 6; the survivor count (dose: 25.0 mg/kg/injection, schedule: Q01DX009 (ip), vehicle: saline) is 0 of 6; the survivor count (dose: 50.0 mg/kg/injection, schedule: Q01DX009 (ip), vehicle: saline) was 0 of 6; the survivor count under setting [1] is 0 of 6; the survivor count under setting [2] is recorded as 0 of 6.
For the compound `CCN(CC)CCOc1cccc2c1C(=O)c1ccccc1C2=O`, the survivor count is on record as 2 of 4 under setting [1] and 1 of 6 under setting [2].
Take `COC(=O)c1ccc(/C=C(\c2ccc([N+](=O)[O-])o2)S(=O)(=O)c2ccc(NC(C)=O)cc2)o1`: the survivor count (dose: 200.0 mg/kg/injection, schedule: Q01DX009 (ip), vehicle: suspension in saline) is 6 of 6.
With `CN1C(=O)C/C(=C\N2CCCCC2)C1=O`, where the note is “dose: 200.0 mg/kg/injection, schedule: Q01DX005 (ip), vehicle: saline with Tween-80”, the survivor count was 1 of 5.
For the compound `CC1(C=O)CCCC2(C)[C@@H]1CCC13CC(CC[C@H]12)C(C(=O)O)C3` (some centres not stated), the survivor count (dose: 1.63 mg/kg/injection, schedule: Q01DX005 (ip), vehicle: Klucel (hydroxypropylcellulose) (HPC)) was 6 of 6.
For the compound `COC1C(C)OC(OC2CC(C)(O)C(C(=O)O)c3cc4c(c(O)c32)C(=O)c2c(O)cc3c(c2C4=O)OC2OC3(C)C(O)C(N(C)C)C2O)C(OC)C1(C)OC` (configuration not stated), the T/C is, setting by setting: (dose: 5.0 mg/kg/injection, schedule: Q01DX009 (ip), vehicle: other) 130 % of control; (dose: 10.0 mg/kg/injection, schedule: Q01DX009 (ip), vehicle: other) 138 % of control; (dose: 10.0 mg/kg/injection, schedule: Q04DX003 (ip), vehicle: other) 129 and 133 % of control; (dose: 20.0 mg/kg/injection, schedule: Q01DX009 (ip), vehicle: other) 135 % of control; (dose: 20.0 mg/kg/injection, schedule: Q04DX003 (ip), vehicle: other) 132 % of control; (dose: 40.0 mg/kg/injection, schedule: Q04DX003 (ip), vehicle: other) 138 % of control. Besides, the survivor count is, setting by setting: (dose: 40.0 mg/kg/injection, schedule: Q01DX009 (ip), vehicle: other) 6 of 6; (dose: 80.0 mg/kg/injection, schedule: Q04DX003 (ip), vehicle: other) 5 of 6.
`CC(C)(C)CC(C)(C)C/C=C/C[N+](C)(C)C/C=C/CC(C)(C)CC(C)(C)C`: the survivor count (dose: 50.0 mg/kg/injection, schedule: Q04DX002 (ip), vehicle: saline) was 2 of 6; the survivor count (dose: 100.0 mg/kg/injection, schedule: Q04DX002 (ip), vehicle: saline) is 0 of 6; the survivor count (dose: 200.0 mg/kg/injection, schedule: Q04DX002 (ip), vehicle: saline) is on record as 1 of 6; the survivor count (dose: 400.0 mg/kg/injection, schedule: Q04DX002 (ip), vehicle: saline) was 1 of 6.
On to `COCCCNS(=O)(=O)c1ncnc2nc[nH]c12`, for which, where the note is “dose: 200.0 mg/kg/injection, schedule: Q04DX003 (ip), vehicle: saline with Tween-80”, the T/C was 125 % of control.
Consider `NNC(=O)CC(N)C(=O)O` (configuration not stated), for which the T/C under setting [2] was 137 % of control. For the same compound, the survivor count (dose: 400.0 mg/kg/injection, schedule: Q01DX009 (ip), vehicle: saline with Tween-80) is 6 of 6.

Source of the values: PubChem BioAssay AID330 (DTP/NCI, 2004).
